Experimental data reported in patent US10173991B2, “Sulfone amide linked benzothiazole inhibitors of endothelial lipase” (BRISTOL-MYERS SQUIBB COMPANY, priority 2014, dated 2019).

Chains of the proteins cited; added tags and fusions are not shown. Residues count along the entry.
UniProt Q9Y5X9, 21-500 limits assumed: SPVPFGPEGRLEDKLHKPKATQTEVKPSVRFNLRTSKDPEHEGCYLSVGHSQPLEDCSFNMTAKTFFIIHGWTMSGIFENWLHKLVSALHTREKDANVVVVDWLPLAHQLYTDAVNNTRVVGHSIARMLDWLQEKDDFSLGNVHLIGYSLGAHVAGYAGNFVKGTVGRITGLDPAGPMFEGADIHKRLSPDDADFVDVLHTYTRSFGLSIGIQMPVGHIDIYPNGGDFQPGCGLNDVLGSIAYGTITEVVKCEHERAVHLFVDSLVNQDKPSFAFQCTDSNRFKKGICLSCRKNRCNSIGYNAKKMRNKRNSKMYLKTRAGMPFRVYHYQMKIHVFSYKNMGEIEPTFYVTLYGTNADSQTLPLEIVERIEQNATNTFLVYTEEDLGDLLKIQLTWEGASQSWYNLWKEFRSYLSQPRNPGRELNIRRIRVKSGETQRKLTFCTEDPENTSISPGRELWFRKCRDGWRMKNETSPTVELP

Molecular target: Endothelial lipase (EL) (Homo sapiens (Human), UniProt Q9Y5X9)
Test: Endothelial lipase (EL) enzymatic assay with fluorescent substrate A10070 in DMPG vesicles
Conditions: read-out: EL IC50

For `CS(=O)(=O)C(C(=O)NCC(=O)NC1CC1)c1nc2cc(OC(F)(F)F)c(-c3ccc(F)nc3)cc2s1` (stereo not shown), the IC50 was 7 nM.

The match of structure and compound is tentative.
